This assay concerns L1210 leukemia ip in BDF1 mice, survival T/C. The assay is described as follows: NCI In Vivo Anticancer Drug Screen. Data for tumor model L1210 Leukemia (intraperitoneal) in B6D2F1 (BDF1) mice. The note with it: T/C endpoint: mean survival time, higher T/C = longer survival.
[1] abbreviates: dose: 25.0 mg/kg/injection, schedule: Q01DX009 (ip), vehicle: Klucel (hydroxypropylcellulose) (HPC).
Setting [2] is: dose: 50.0 mg/kg/injection, schedule: Q01DX009 (ip), vehicle: Klucel (hydroxypropylcellulose) (HPC).
The mark [3] stands for this setting: dose: 400.0 mg/kg/injection, schedule: Q01DX009 (ip), vehicle: Klucel (hydroxypropylcellulose) (HPC).
[4] abbreviates: dose: 400.0 mg/kg/injection, schedule: Q04DX003 (ip), vehicle: saline with Tween-80.

The results in this text go back to PubChem BioAssay AID248 (DTP/NCI, 2004).

The list shows only some results of the screen, not a fair sample: it gathers tests that were run many times, whatever their T/C, doses with no T/C, and many T/C values between a quarter and a half above the control. Other doses and runs of a compound stand elsewhere. T/C is the treated group as % of the vehicle group. Some entries give survivors of the animals treated and no T/C: the source files T/C as zero there, which appears to mark a toxic dose or a test without result, not a measured value. Some doses without a T/C left all or most animals alive at the check, yet need not have been tolerated: survival well below the control is almost never listed, so the zero probably covers shortened survival too. Survivors were counted at the toxicity check, usually on the fifth day, unless a day is given; later deaths do not show. Schedule codes are those of the source, read here as Q, the interval in days (D) or hours (H), X, the number of doses. Where survival is the endpoint, the PubChem record calls one and a half times the control and up active, and a quarter to a half above the control has no call in these data; cut-offs in other NCI protocols can differ.

`CCN(CC)CC(=O)NCC(CCCCN1CCCCC1)(c1cccc2ccccc12)C(C)C` (stereo not given): the survivor count (dose: 100.0 mg/kg/injection, schedule: Q04DX003 (ip), vehicle: saline) is recorded as 5 of 6; the survivor count (dose: 200.0 mg/kg/injection, schedule: Q04DX003 (ip), vehicle: saline) was 0 of 6; the survivor count (dose: 400.0 mg/kg/injection, schedule: Q04DX003 (ip), vehicle: saline) is on record as 0 of 6.

In the case of `O=C(O)C1CC2c3ccccc3C1c1ccccc12` (stereo not given), the survivor count runs as follows: (dose: 200.0 mg/kg/injection, schedule: Q04DX003 (ip), vehicle: Klucel (hydroxypropylcellulose) (HPC)) 6 of 6; (dose: 400.0 mg/kg/injection, schedule: Q04DX003 (ip), vehicle: Klucel (hydroxypropylcellulose) (HPC)) 6 of 6.

As for `CCCCc1nc2c(O)ccc(O)c2nc1C`, the survivor count (dose: 300.0 mg/kg/injection, schedule: Q04DX003 (ip), vehicle: other) is recorded as 3 of 6.

As for `Cc1ccc2nc3c4ccccc4scc-3c2c1`, the survivor count (dose: 200.0 mg/kg/injection, schedule: Q04DX003 (ip), vehicle: acetone) is 4 of 6 and the survivor count (dose: 400.0 mg/kg/injection, schedule: Q04DX003 (ip), vehicle: acetone) is 1 of 6.

As for `O=C(O)CC[S-].[Ag+]`, the survivor count (dose: 400.0 mg/kg/injection, schedule: Q01DX001 (ip), vehicle: other) was 6 of 6.

As to `CC(=O)OCC1OC(N2C(=O)/C(=C/c3ccncc3)SC2=S)C(OC(C)=O)C(OC(C)=O)C1OC(C)=O` (stereo not given), where the note is “dose: 200.0 mg/kg/injection, schedule: Q01DX005 (ip), vehicle: other”, the survivor count is on record as 6 of 6.

In the case of `CC[CH2][Pb]([CH2]CC)([CH2]CC)[O]C(=O)CCl`, the survivor count by setting is: (dose: 12.0 mg/kg/injection, schedule: Q01DX009 (ip), vehicle: Klucel (hydroxypropylcellulose) (HPC)) 6 of 6; under setting [1], 0 of 6; under setting [2], 0 of 6; (dose: 100.0 mg/kg/injection, schedule: Q01DX009 (ip), vehicle: Klucel (hydroxypropylcellulose) (HPC)) 0 of 6; (dose: 200.0 mg/kg/injection, schedule: Q01DX009 (ip), vehicle: Klucel (hydroxypropylcellulose) (HPC)) 0 of 6; under setting [3], 0 of 6.

Consider `O=C(O)CCBr`, for which, for the setting “dose: 400.0 mg/kg/injection, schedule: Q01DX001 (ip), vehicle: saline”, the survivor count is reported as 2 of 3.

`O=C(C[n+]1cccc(/C=N\O)c1)c1ccc(-c2ccc(C(=O)C[n+]3cccc(/C=N\O)c3)cc2)cc1`: the survivor count by setting is: (dose: 3.0 mg/kg/injection, schedule: Q01DX009 (ip), vehicle: Klucel (hydroxypropylcellulose) (HPC)) 3 of 3; under setting [1], 1 of 3; under setting [2], 0 of 3; (dose: 100.0 mg/kg/injection, schedule: Q04DX002 (ip), vehicle: Klucel (hydroxypropylcellulose) (HPC)) 0 of 3; (dose: 200.0 mg/kg/injection, schedule: Q04DX002 (ip), vehicle: Klucel (hydroxypropylcellulose) (HPC)) 0 of 3; (dose: 400.0 mg/kg/injection, schedule: Q04DX002 (ip), vehicle: Klucel (hydroxypropylcellulose) (HPC)) 0 of 3. For the same molecule, under “dose: 6.0 mg/kg/injection, schedule: Q01DX009 (ip), vehicle: Klucel (hydroxypropylcellulose) (HPC)”, the T/C was 129 % of control.

Take `OCc1cnc[nH]1`: where the note is “dose: 100.0 mg/kg/injection, schedule: Q04DX002 (ip), vehicle: saline”, the survivor count is 3 of 3.

As for `CC(=O)Nc1nnc(NC(C)=O)s1`, the survivor count is 3 of 6 (dose: 37.5 mg/kg/injection, schedule: Q01DX001 (ip), vehicle: other); 2 of 6 (dose: 75.0 mg/kg/injection, schedule: Q01DX001 (ip), vehicle: other); 0 of 6 (dose: 150.0 mg/kg/injection, schedule: Q01DX001 (ip), vehicle: other); 1 of 6 (dose: 300.0 mg/kg/injection, schedule: Q01DX001 (ip), vehicle: other).

On to `Cc1cc2c3ccc(C)[n+](C)c3ccc2n1C`, for which the survivor count by setting is: (dose: 10.0 mg/kg/injection, schedule: Q01DX009 (ip), vehicle: saline) 0 of 6; (dose: 19.0 mg/kg/injection, schedule: Q01DX001 (ip), vehicle: saline) 1 of 6; (dose: 38.0 mg/kg/injection, schedule: Q01DX001 (ip), vehicle: saline) 0 of 6; (dose: 40.0 mg/kg/injection, schedule: Q04DX003 (ip), vehicle: saline) 0 of 6.

`O=C(O)/C(=C\c1ccc(Cl)cc1)c1cccc2ccccc12`: the survivor count was 6 of 6 (dose: 100.0 mg/kg/injection, schedule: Q04DX003 (ip), vehicle: Klucel (hydroxypropylcellulose) (HPC)) and 0 of 6 under setting [3].

With `C=C(Cl)CNN1CCOCC1`, the survivor count under setting [4] is given as 0 of 6.

As to `O=C(O)C1C(c2ccccc2)=C(c2ccccc2)c2ccccc21` (stereo not given), the survivor count runs as follows: (dose: 200.0 mg/kg/injection, schedule: Q04DX003 (ip), vehicle: saline with Tween-80) 3 of 6; under setting [4], 0 of 6.

As to `CCCCCCCC(=O)N1CCCCC1CC` (stereo not given), for the setting “dose: 400.0 mg/kg/injection, schedule: Q04DX002 (ip), vehicle: saline with Tween-80”, the survivor count is on record as 2 of 3.

Turning to `CC(O)CNC1CCC(C)CC1` (stereo not given), where the note is “dose: 300.0 mg/kg/injection, schedule: Q01DX001 (ip), vehicle: acid diluted with saline”, the survivor count is listed as 1 of 6.
